# Laboratory results reported in the supplement of paper PMC12823440, “Inhibitors supercharge kinase turnover through native proteolytic circuits” (Nature, 2025).
# Chains of the proteins cited; added tags and fusions are not shown. Lines headed by an entry give the natural chain unless they say otherwise; changes in a name come on top.
# UniProt Q06187: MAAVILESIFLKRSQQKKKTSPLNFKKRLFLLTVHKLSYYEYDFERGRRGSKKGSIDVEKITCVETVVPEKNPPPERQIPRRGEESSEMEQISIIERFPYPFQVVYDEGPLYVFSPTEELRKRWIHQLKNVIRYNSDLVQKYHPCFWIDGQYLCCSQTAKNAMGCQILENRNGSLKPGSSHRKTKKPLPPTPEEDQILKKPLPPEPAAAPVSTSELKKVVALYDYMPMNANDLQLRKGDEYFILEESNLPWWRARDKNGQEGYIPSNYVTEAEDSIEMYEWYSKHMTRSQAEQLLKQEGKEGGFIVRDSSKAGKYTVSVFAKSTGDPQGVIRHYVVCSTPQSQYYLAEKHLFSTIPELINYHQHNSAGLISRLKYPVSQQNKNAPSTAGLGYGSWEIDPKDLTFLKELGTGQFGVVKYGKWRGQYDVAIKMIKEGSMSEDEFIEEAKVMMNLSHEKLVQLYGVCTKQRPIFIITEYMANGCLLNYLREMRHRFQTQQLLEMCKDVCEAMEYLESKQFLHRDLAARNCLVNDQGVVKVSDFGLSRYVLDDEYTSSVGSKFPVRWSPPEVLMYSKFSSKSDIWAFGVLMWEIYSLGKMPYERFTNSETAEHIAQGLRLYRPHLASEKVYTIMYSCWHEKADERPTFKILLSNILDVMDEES
# UniProt Q9UQM7, whole entry: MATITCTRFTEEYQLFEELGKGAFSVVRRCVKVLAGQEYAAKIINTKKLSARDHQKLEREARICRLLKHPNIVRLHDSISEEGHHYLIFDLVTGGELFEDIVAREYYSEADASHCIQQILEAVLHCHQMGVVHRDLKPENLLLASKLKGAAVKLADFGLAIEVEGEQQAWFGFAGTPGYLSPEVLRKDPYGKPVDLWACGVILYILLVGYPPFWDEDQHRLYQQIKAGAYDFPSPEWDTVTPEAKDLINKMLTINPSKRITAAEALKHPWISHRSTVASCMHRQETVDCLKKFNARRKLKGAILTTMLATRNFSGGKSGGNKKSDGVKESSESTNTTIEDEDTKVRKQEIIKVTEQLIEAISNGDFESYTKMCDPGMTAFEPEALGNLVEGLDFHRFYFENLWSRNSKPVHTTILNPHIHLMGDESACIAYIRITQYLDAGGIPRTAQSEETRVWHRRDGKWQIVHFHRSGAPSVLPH
# UniProt Q13555: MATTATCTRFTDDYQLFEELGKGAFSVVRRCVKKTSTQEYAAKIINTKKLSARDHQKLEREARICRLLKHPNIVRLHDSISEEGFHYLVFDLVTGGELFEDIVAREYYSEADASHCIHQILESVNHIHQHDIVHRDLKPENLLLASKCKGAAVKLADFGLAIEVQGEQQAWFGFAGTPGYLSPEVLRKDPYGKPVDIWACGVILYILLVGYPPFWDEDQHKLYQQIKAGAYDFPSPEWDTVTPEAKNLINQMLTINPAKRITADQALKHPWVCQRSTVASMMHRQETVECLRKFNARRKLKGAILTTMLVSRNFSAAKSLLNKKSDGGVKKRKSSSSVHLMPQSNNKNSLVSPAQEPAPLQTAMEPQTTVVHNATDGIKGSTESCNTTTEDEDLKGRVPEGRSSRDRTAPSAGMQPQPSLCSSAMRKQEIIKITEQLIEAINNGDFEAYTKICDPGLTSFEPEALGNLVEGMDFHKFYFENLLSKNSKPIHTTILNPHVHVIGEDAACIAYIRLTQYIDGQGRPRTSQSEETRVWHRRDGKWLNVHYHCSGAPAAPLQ
# UniProt Q15131: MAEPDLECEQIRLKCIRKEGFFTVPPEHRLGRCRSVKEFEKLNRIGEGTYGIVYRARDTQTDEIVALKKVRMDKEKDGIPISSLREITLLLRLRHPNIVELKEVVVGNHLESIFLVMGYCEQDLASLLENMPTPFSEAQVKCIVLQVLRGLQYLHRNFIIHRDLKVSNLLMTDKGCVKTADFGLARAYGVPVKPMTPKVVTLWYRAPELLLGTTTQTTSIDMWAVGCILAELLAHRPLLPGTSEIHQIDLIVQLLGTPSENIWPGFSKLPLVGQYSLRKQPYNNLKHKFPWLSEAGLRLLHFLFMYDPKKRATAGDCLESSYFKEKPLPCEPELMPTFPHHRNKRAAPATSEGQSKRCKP
# UniProt Q00526: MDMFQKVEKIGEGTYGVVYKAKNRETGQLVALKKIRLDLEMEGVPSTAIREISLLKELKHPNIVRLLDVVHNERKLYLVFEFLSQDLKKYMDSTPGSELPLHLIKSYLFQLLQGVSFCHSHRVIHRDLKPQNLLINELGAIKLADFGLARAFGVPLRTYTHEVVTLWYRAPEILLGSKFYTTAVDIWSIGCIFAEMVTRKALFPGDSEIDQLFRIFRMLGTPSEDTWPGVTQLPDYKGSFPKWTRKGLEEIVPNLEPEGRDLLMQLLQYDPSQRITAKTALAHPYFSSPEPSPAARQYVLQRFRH
# UniProt P11802: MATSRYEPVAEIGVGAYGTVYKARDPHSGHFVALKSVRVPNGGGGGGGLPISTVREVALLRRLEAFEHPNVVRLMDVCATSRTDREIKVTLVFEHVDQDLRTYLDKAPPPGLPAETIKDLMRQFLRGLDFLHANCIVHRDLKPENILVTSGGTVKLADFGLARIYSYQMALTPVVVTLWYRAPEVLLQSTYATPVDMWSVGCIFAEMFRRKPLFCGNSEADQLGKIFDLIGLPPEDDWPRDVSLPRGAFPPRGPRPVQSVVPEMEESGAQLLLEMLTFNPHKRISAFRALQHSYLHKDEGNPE
# UniProt Q00535, whole entry, looked up: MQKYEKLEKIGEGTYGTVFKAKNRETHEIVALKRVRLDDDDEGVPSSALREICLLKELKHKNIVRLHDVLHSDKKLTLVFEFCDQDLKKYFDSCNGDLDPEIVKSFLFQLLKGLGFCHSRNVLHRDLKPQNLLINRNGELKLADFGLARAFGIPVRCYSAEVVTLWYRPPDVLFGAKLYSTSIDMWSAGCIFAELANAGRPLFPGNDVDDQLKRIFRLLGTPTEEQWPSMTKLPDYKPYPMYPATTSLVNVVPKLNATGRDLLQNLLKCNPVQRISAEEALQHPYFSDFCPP
# UniProt Q00534, whole entry: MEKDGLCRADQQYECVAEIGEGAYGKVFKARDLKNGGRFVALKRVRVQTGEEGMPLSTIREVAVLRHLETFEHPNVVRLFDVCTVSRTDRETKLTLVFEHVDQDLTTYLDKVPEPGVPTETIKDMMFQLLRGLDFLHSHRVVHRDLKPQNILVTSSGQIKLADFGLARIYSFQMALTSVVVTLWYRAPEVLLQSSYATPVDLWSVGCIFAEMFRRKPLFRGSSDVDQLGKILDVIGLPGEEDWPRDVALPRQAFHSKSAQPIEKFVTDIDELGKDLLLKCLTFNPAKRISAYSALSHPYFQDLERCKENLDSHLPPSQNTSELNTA
# Where a name gives a salt, the structure may show the parent alone. This is one part of the list. The calls rarely recur for the same compound in another form.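 Kinases, fused to nanoluciferase, were expressed in K562 cells; luminescence was measured every 4 h from 2 to 18 h as percent of control (DMSO = 100%, positive control = 0%). A time point is decreased if signal falls significantly (2 sigma). Hits were called by the authors by a rule that is not shown; the count of time points alone does not decide it.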
# Columns and labels:
# Assay in all cases: kinase-Nluc reporter destabilization hit call (1 = scored as downregulated) (binary); higher = compound decreases kinase abundance
# Conditions in all cases: K562; 2-18 h
# [1] = system: BRAF_V600E
# [2] = biological target: BTK (UniProt Q06187)
# [3] = biological target: CAMK2A (UniProt Q9UQM7)
# [4] = biological target: CAMK2G (UniProt Q13555)
# [5] = biological target: CDK10 (UniProt Q15131)
# [6] = biological target: CDK2 (UniProt P24941)
# [7] = biological target: CDK3 (UniProt Q00526)
# [8] = biological target: CDK4 (UniProt P11802)
# [9] = biological target: CDK5 (UniProt Q00535)
# [10] = biological target: CDK6 (UniProt Q00534)
Structure (SMILES),kinase-Nluc reporter destabilization hit call [1],kinase-Nluc reporter destabilization hit call [2],kinase-Nluc reporter destabilization hit call [3],kinase-Nluc reporter destabilization hit call [4],kinase-Nluc reporter destabilization hit call [5],kinase-Nluc reporter destabilization hit call [6],kinase-Nluc reporter destabilization hit call [7],kinase-Nluc reporter destabilization hit call [8],kinase-Nluc reporter destabilization hit call [9],kinase-Nluc reporter destabilization hit call [10]
CC1=C(C(=O)Nc2ccc3[nH]ncc3c2)C(c2ccc(F)c(C(=O)NCc3ccccn3)c2)NC(=O)N1 (stereo not given) (10 µM),inactive: 0,inactive: 0,inactive: 0,inactive: 0,inactive: 0,inactive: 0,inactive: 0,inactive: 0,inactive: 0,inactive: 0
Cn1c(=O)c(Oc2ccc(F)cc2F)cc2cnc(NC(CCO)CCO)nc21 [Pamapimod] (10 µM),inactive: 0,inactive: 0,inactive: 0,inactive: 0,inactive: 0,inactive: 0,inactive: 0,inactive: 0,inactive: 0,inactive: 0
C[C@@H]1O[C@@H](O[C@H]2[C@H](OC(=O)[C@]34CCC(C)(C)C[C@H]3C3=CC[C@@H]5[C@@]6(C)C[C@H](O)[C@H](O[C@@H]7O[C@H](CO)[C@@H](O)[C@H](O)[C@H]7O)C(CO)(CO)[C@@H]6CC[C@@]5(C)[C@]3(C)C[C@H]4O)OC[C@H](O)[C@@H]2O)[C@H](O)[C@H](O)[C@H]1O[C@@H]1OC[C@@H](O)[C@H](O[C@@H]2OC[C@](O)(CO)[C@H]2O)[C@H]1O [Platycodin D] (10 µM),inactive: 0,inactive: 0,inactive: 0,inactive: 0,inactive: 0,inactive: 0,inactive: 0,inactive: 0,inactive: 0,inactive: 0
C[C@@]12CCc3occc3[C@H]1CC[C@@]13C[C@@H](CC[C@H]12)[C@@](O)(CO)C3 [Cafestol] (10 µM),inactive: 0,inactive: 0,inactive: 0,inactive: 0,inactive: 0,inactive: 0,inactive: 0,inactive: 0,inactive: 0,inactive: 0
COC(=O)c1cc2c(OC(C)C)cc(OC(C)C)cc2[nH]1 (2.5 µM),inactive: 0,inactive: 0,inactive: 0,inactive: 0,inactive: 0,inactive: 0,inactive: 0,inactive: 0,inactive: 0,inactive: 0
CCCCNc1ncc2c(-c3ccc(CN4CCN(C)CC4)cc3)cn([C@H]3CC[C@H](O)CC3)c2n1 [UNC2025 (hydrochloride)] (2.5 µM),inactive: 0,inactive: 0,inactive: 0,inactive: 0,inactive: 0,inactive: 0,inactive: 0,inactive: 0,inactive: 0,inactive: 0
C[C@@H]1CC[C@]2(C(=O)O)CC[C@]3(C)C(=CC[C@@H]4[C@@]5(C)CC[C@H](O)[C@@](C)(CO)[C@@H]5CC[C@]43C)[C@@H]2[C@]1(C)O [Rotundic acid] (10 µM),inactive: 0,inactive: 0,inactive: 0,inactive: 0,inactive: 0,inactive: 0,inactive: 0,inactive: 0,inactive: 0,inactive: 0
CCc1nc(C(N)=O)c(Nc2ccc(N3CCC(N4CCN(C)CC4)CC3)c(OC)c2)nc1NC1CCC(OC)CC1 (stereo not given) [EML4-ALK kinase inhibitor 1] (2.5 µM),inactive: 0,inactive: 0,inactive: 0,inactive: 0,inactive: 0,inactive: 0,inactive: 0,inactive: 0,inactive: 0,inactive: 0
NC(=O)c1cccc2c(N[C@H](CN3CCC3)c3ccc(Cl)c(C(F)(F)F)c3)ncnc12 (10 µM),inactive: 0,inactive: 0,inactive: 0,inactive: 0,inactive: 0,inactive: 0,inactive: 0,inactive: 0,inactive: 0,inactive: 0
C=CC(=O)N[C@H]1CCOC[C@H]1Nc1ncc2cc(-c3c(Cl)c(OC)cc(OC)c3Cl)ccc2n1 [Fisogatinib] (10 µM),inactive: 0,inactive: 0,inactive: 0,inactive: 0,inactive: 0,inactive: 0,inactive: 0,inactive: 0,inactive: 0,inactive: 0
C[C@H](Nc1ccc2c(c1)OCCn1cc(N3C(=O)OC[C@H]3C(F)F)nc1-2)C(N)=O (10 µM),inactive: 0,inactive: 0,inactive: 0,inactive: 0,inactive: 0,inactive: 0,inactive: 0,inactive: 0,inactive: 0,inactive: 0
Cn1sc(=O)n(Cc2ccccc2)c1=O (10 µM),inactive: 0,inactive: 0,inactive: 0,inactive: 0,inactive: 0,inactive: 0,inactive: 0,inactive: 0,inactive: 0,inactive: 0
CS(=O)(=O)N1CCN(Cc2cn3cc(-c4cnc(N)nc4)nc(N4CCOCC4)c3n2)CC1 (10 µM),inactive: 0,inactive: 0,inactive: 0,inactive: 0,inactive: 0,inactive: 0,inactive: 0,inactive: 0,inactive: 0,inactive: 0
Cc1ccc(CNC(=O)N2CCC[C@]3(CCN(Cc4ccc(Cl)c(Cl)c4)C3)C2)cc1 (10 µM),inactive: 0,inactive: 0,inactive: 0,inactive: 0,inactive: 0,inactive: 0,inactive: 0,inactive: 0,inactive: 0,inactive: 0
Cc1ccc(-n2c(-c3ccc(O)cc3O)n[nH]c2=O)cc1 (10 µM),inactive: 0,inactive: 0,inactive: 0,active: 1,inactive: 0,inactive: 0,inactive: 0,inactive: 0,inactive: 0,inactive: 0
O=C(O)[C@]1(Cc2cccc(Nc3nccs3)n2)CC[C@@H](Oc2cccc(Cl)c2F)CC1 (2.5 µM),inactive: 0,inactive: 0,inactive: 0,inactive: 0,inactive: 0,inactive: 0,inactive: 0,inactive: 0,inactive: 0,inactive: 0
CN1CCC(c2ccccc2CC(C)(C)Nc2nc(N3CCOCC3)nc(-n3c(S(C)(=O)=O)nc4ccccc43)n2)CC1 (10 µM),inactive: 0,inactive: 0,inactive: 0,inactive: 0,inactive: 0,inactive: 0,inactive: 0,inactive: 0,inactive: 0,inactive: 0
CC(C)=C/C=C1\O[C@@H]2CC(C)=CC(=O)[C@@H]2[C@]1(C)O [Bisabolangelone] (10 µM),inactive: 0,inactive: 0,inactive: 0,inactive: 0,inactive: 0,inactive: 0,inactive: 0,inactive: 0,inactive: 0,inactive: 0
O=C(NCc1cccc(O)c1)c1cc2cc(F)ccc2[nH]1 (10 µM),inactive: 0,inactive: 0,inactive: 0,inactive: 0,inactive: 0,inactive: 0,inactive: 0,inactive: 0,inactive: 0,inactive: 0
CN(c1ccc(C(F)(F)F)cc1)S(=O)(=O)c1ccc(C(=O)Nc2nc(-c3ccccn3)cs2)cc1 (2.5 µM),inactive: 0,inactive: 0,inactive: 0,inactive: 0,inactive: 0,inactive: 0,inactive: 0,inactive: 0,inactive: 0,inactive: 0
CCC(=O)N1CC[C@H](Nc2ncnc3c2CN(c2cnc(OC)c(C(F)(F)F)c2)CC3)C1 [Leniolisib] (10 µM),inactive: 0,inactive: 0,inactive: 0,inactive: 0,inactive: 0,inactive: 0,inactive: 0,inactive: 0,inactive: 0,inactive: 0
O=C(N=c1sccn1Cc1ccccc1)c1c[nH]c2ncccc12 (10 µM),inactive: 0,inactive: 0,inactive: 0,inactive: 0,inactive: 0,inactive: 0,inactive: 0,inactive: 0,inactive: 0,inactive: 0
CCOC(=O)C1=C[C@]2(CC)CCCN3CCc4c(n1c1ccccc41)[C@@H]32 [Vinpocetine] (10 µM),inactive: 0,inactive: 0,inactive: 0,inactive: 0,inactive: 0,inactive: 0,inactive: 0,inactive: 0,inactive: 0,inactive: 0
C=CC(=O)N1CCC[C@@H](n2c(=O)n(-c3ccc(Oc4ccccc4)cc3)c3c(N)nccc32)C1 [Tolebrutinib] (10 µM),inactive: 0,inactive: 0,inactive: 0,inactive: 0,inactive: 0,inactive: 0,inactive: 0,inactive: 0,inactive: 0,inactive: 0
COc1ccc(F)cc1C(=O)NCc1ccc(-c2nn([C@@H](C)C(F)(F)F)c(N)c2C(N)=O)cc1 [Pirtobrutinib] (10 µM),inactive: 0,inactive: 0,inactive: 0,inactive: 0,inactive: 0,inactive: 0,inactive: 0,inactive: 0,inactive: 0,inactive: 0
CCN1C(C)(C)CC(Oc2ccc(C(=O)Nc3ccc(NC(=O)Nc4cc(C(C)(C)C)on4)cc3)nc2)CC1(C)C (10 µM),inactive: 0,inactive: 0,inactive: 0,inactive: 0,inactive: 0,inactive: 0,inactive: 0,inactive: 0,inactive: 0,inactive: 0
COC[C@H]1Cn2cc(-c3nc(Nc4ccnn4C)ncc3C)nc2C(=O)N1Cc1ccc(F)c(F)c1 (10 µM),inactive: 0,inactive: 0,inactive: 0,inactive: 0,inactive: 0,inactive: 0,inactive: 0,inactive: 0,inactive: 0,inactive: 0
CNS(=O)(=O)C[C@H]1CC[C@H](N(C)c2[nH]cnc3nccc2-3)CC1 [Oclacitinib (maleate)] (10 µM),inactive: 0,inactive: 0,inactive: 0,inactive: 0,inactive: 0,inactive: 0,inactive: 0,inactive: 0,inactive: 0,inactive: 0

# Entries of single compounds as entered above. Values in the order: kinase-Nluc reporter destabilization hit call [1] | kinase-Nluc reporter destabilization hit call [2] | kinase-Nluc reporter destabilization hit call [3] | kinase-Nluc reporter destabilization hit call [4] | kinase-Nluc reporter destabilization hit call [5] | kinase-Nluc reporter destabilization hit call [6] | kinase-Nluc reporter destabilization hit call [7] | kinase-Nluc reporter destabilization hit call [8] | kinase-Nluc reporter destabilization hit call [9] | kinase-Nluc reporter destabilization hit call [10]
# `CCC(=O)N1CC[C@H](Nc2ncnc3c2CN(c2cnc(OC)c(C(F)(F)F)c2)CC3)C1` [Leniolisib] (10 µM) is entered as inactive: 0 | inactive: 0 | inactive: 0 | inactive: 0 | inactive: 0 | inactive: 0 | inactive: 0 | inactive: 0 | inactive: 0 | inactive: 0
# `COc1ccc(F)cc1C(=O)NCc1ccc(-c2nn([C@@H](C)C(F)(F)F)c(N)c2C(N)=O)cc1` [Pirtobrutinib] (10 µM) is entered as inactive: 0 | inactive: 0 | inactive: 0 | inactive: 0 | inactive: 0 | inactive: 0 | inactive: 0 | inactive: 0 | inactive: 0 | inactive: 0
